Values quoted from earlier work, collected in patent EP1100539B1, “COMBINATION OF ACTIVE SUBSTANCES, ESPECIALLY FOR THE PROPHYLAXIS AND THERAPY OF ISCHAEMIC ORGANIC LESIONS AND REPERFUSION SYNDROMES” (Vascular Biotech GmbH, priority 1998, dated 2000).
For at least one compound, name, drawing or mass did not settle the structure.

Conditions: cited from earlier work

For `CC(=O)Oc1ccccc1C(=O)O` [Acetylsalicylsäure, reference compound], the Plasmahalbwertszeit is listed as “ca. 25 Minuten”.
